Results deposited as PubChem BioAssay AID1259424 (University of Nebraska Medical Center, 2018).
Purpose: 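Seek colon cancer survival genes behaving like KSR1, using a six-gene signature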 (primary screen). Cell system: human HCT116 colon cancer cells. Reagent: siRNA pool against human genes, 50 nM. Detection: 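Six signature mRNAs by branched-DNA multiplex assay, scaled to two housekeeping genes and non-targeting median, log2; matched to mean KSR1 knockdown profile by Pearson correlation and euclidean distance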. Reading the numbers: mean correlation with KSR1 profile and KSR1 correlation: higher = expression change more like KSR1 knockdown; mean distance from KSR1 profile: higher = expression change less like KSR1 knockdown.
This is a random part of about 14,000 reagents tested. 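Higher correlation or smaller distance means closer resemblance to KSR1 loss; control wells, including KSR1 knockdowns, recur on many plates.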 The record does not give: the time to read-out.

Target gene | mean correlation with KSR1 profile | mean distance from KSR1 profile | KSR1 correlation, replicate 1 | KSR1 correlation, replicate 2 | KSR1 correlation, replicate 3
PACS1 (GeneID 55690) | -0.433 | 2.26 | -0.481 | -0.35 | -0.51
DECR1 (GeneID 1666) | -0.18 | 1.73 | -0.276 | -0.212 | 0.43
UBXN6 (GeneID 80700) | 0.331 | 2.45 | 0.36 | 0.0565 | 0.448
DIP2A (GeneID 23181) | 0.716 | 2.83 | 0.718 | 0.612 | 0.634
GRP (GeneID 2922) | -0.568 | 1.85 | -0.37 | -0.514 | -0.663
MAP3K10 (GeneID 4294) | 0.29 | 3.17 | 0.471 | 0.446 | -0.17
RAB6A (GeneID 5870) | -0.676 | 1.42 | -0.61 | -0.741 | -0.281
EHD4 (GeneID 30844) | 0.176 | 1.72 | 0.129 | -0.0505 | -0.293
SOWAHC (GeneID 65124) | -0.0601 | 1.77 | -0.208 | -0.22 | -0.258
NIT2 (GeneID 56954) | 0.131 | 2.4 | -0.0204 | 0.24 | 0.159
MTMR12 (GeneID 54545) | -0.0324 | 4.24 | -0.348 | -0.00535 | -0.0839
MPDZ (GeneID 8777) | -0.417 | 1.85 | -0.497 | -0.383 | -0.136
H2AC11 (GeneID 8969) | 0.225 | 1.41 | 0.309 | 0.321 | 0.253
COQ10B (GeneID 80219) | 0.115 | 1.93 | -0.218 | 0.181 | 0.0854
UPP1 (GeneID 7378) | -0.108 | 2.17 | 0.138 | -0.463 | -0.0175
TNFRSF13B (GeneID 23495) | -0.171 | 2.17 | -0.213 | -0.174 | -0.0998
SLC31A2 (GeneID 1318) | -0.308 | 2.38 | -0.42 | -0.141 | -0.422
ARMC9 (GeneID 80210) | 0.338 | 3.04 | 0.205 | 0.326 | 0.382
SLC5A4 (GeneID 6527) | -0.199 | 1.49 | -0.063 | -0.245 | -0.149
CDH22 (GeneID 64405) | 0.374 | 1.98 | 0.239 | 0.181 | 0.542
UTP11 (GeneID 51118) | 0.634 | 1.42 | 0.534 | 0.564 | 0.68
NEIL3 (GeneID 55247) | -0.426 | 1.15 | -0.232 | -0.189 | -0.797
CYB5R2 (GeneID 51700) | -0.215 | 1.93 | 0.0171 | 0.289 | -0.364
TNFRSF25 (GeneID 8718) | -0.292 | 2.34 | -0.0738 | -0.444 | -0.375
ZNF557 (GeneID 79230) | 0.83 | 1.08 | 0.854 | 0.837 | 0.82
TXNRD2 (GeneID 10587) | -0.505 | 1.94 | -0.453 | -0.565 | -0.515
RRM2B (GeneID 50484) | 0.367 | 1.19 | 0.304 | 0.395 | 0.397
DZIP1 (GeneID 22873) | -0.227 | 1.43 | 0.0874 | -0.231 | -0.461
CNOT12 (GeneID 85456) | 0.349 | 3.1 | 0.371 | 0.24 | 0.135
LRRK1 (GeneID 79705) | 0.555 | 1.74 | 0.604 | 0.595 | 0.206
FRMD5 (GeneID 84978) | 0.185 | 3.37 | 0.18 | 0.183 | -0.0429
C19orf48P (GeneID 84798) | 0.247 | 1.84 | 0.186 | 0.102 | 0.147
NKX2-8 (GeneID 26257) | -0.329 | 1.99 | -0.102 | -0.0588 | -0.407
ADAM22 (GeneID 53616) | -0.293 | 1.66 | -0.244 | -0.0893 | -0.473
PLEKHA8P1 (GeneID 51054) | -0.849 | 3.7 | -0.737 | -0.562 | -0.721
COIL (GeneID 8161) | -0.242 | 2.08 | -0.245 | -0.281 | -0.138
FAIM2 (GeneID 23017) | -0.206 | 1.84 | -0.108 | -0.545 | 0.0264
TMEM14A (GeneID 28978) | -0.648 | 2.34 | -0.657 | -0.654 | -0.739
NENF (GeneID 29937) | -0.473 | 4.68 | -0.505 | -0.579 | -0.619
NIPSNAP1 (GeneID 8508) | -0.137 | 2.11 | 0.00796 | -0.266 | -0.256
SOX12 (GeneID 6666) | -0.116 | 3.54 | -0.699 | -0.232 | 0.129
CRYGS (GeneID 1427) | 0.245 | 1.61 | 0.464 | -0.0853 | 0.00167

The list goes on, starting with the last 2 of the part before.
Target gene | mean correlation with KSR1 profile | mean distance from KSR1 profile | KSR1 correlation, replicate 1 | KSR1 correlation, replicate 2 | KSR1 correlation, replicate 3
SOX12 (GeneID 6666) | -0.116 | 3.54 | -0.699 | -0.232 | 0.129
CRYGS (GeneID 1427) | 0.245 | 1.61 | 0.464 | -0.0853 | 0.00167
GPSM2 (GeneID 29899) | 0.295 | 2.01 | 0.372 | 0.216 | 0.463
GLIPR1L1 (GeneID 256710) | 0.79 | 0.988 | 0.756 | 0.864 | 0.811
MACROD1 (GeneID 28992) | 0.129 | 0.903 | -0.609 | -0.72 | -0.426
STAP2 (GeneID 55620) | 0.472 | 2.05 | 0.401 | 0.468 | 0.365
CA11 (GeneID 770) | -0.215 | 2.04 | -0.261 | -0.143 | -0.405
STAM2 (GeneID 10254) | 0.445 | 1.84 | 0.522 | 0.289 | 0.455
SALL1 (GeneID 6299) | 0.0724 | 5.81 | -0.349 | 0.407 | 0.0845
KRT31 (GeneID 3881) | -0.607 | 2.91 | -0.543 | -0.617 | -0.6
FBXO46 (GeneID 23403) | -0.433 | 1.12 | -0.427 | -0.0912 | -0.566
GMDS (GeneID 2762) | 0.232 | 1.19 | 0.226 | 0.0272 | 0.334
HOXA1 (GeneID 3198) | 0.439 | 3.14 | 0.536 | 0.57 | 0.334
HOXA7 (GeneID 3204) | 0.353 | 2.57 | 0.288 | 0.43 | 0.486
CSNK2A2 (GeneID 1459) | -0.339 | 3.89 | -0.251 | -0.139 | -0.615
IL9 (GeneID 3578) | 0.288 | 1.49 | 0.223 | 0.221 | 0.405
CD81 (GeneID 975) | -0.255 | 3.04 | -0.225 | -0.307 | -0.00395
BAMBI (GeneID 25805) | -0.0928 | 2.26 | 0.299 | -0.37 | -0.142
TNIP3 (GeneID 79931) | 0.562 | 1.69 | 0.684 | 0.643 | 0.461
TSSK6 (GeneID 83983) | 0.207 | 2 | 0.504 | 0.219 | -0.438
LCORL (GeneID 254251) | 0.144 | 1.31 | 0.238 | -0.0525 | -0.181
NUDT18 (GeneID 79873) | 0.544 | 2.18 | 0.556 | 0.601 | 0.492
ARFGEF1 (GeneID 10565) | -0.259 | 3.04 | -0.373 | -0.0441 | -0.364
